# Results are given in words; binding and its absence hold for the method and conditions named. Binding seen in cells or lysates may run through a third protein. Some entries that bind do so weakly or less than the wild type.
# Protein sequences, listed by entry. Tags and fused reporters are not part of them.
# UniProt O15371: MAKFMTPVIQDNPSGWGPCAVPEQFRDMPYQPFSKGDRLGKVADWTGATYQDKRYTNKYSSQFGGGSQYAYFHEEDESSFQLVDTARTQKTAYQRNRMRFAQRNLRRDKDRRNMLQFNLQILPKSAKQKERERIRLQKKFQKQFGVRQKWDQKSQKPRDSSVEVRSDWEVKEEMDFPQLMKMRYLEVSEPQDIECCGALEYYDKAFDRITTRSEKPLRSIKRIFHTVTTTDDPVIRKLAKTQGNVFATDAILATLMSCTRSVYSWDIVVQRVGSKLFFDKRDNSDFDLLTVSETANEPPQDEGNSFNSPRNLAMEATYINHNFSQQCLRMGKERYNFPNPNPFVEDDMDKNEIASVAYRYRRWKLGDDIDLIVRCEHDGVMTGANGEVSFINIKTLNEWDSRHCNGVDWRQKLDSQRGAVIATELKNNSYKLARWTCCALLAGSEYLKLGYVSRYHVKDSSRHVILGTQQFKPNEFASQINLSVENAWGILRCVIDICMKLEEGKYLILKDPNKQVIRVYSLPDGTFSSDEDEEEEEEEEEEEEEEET
# UniProt P55884: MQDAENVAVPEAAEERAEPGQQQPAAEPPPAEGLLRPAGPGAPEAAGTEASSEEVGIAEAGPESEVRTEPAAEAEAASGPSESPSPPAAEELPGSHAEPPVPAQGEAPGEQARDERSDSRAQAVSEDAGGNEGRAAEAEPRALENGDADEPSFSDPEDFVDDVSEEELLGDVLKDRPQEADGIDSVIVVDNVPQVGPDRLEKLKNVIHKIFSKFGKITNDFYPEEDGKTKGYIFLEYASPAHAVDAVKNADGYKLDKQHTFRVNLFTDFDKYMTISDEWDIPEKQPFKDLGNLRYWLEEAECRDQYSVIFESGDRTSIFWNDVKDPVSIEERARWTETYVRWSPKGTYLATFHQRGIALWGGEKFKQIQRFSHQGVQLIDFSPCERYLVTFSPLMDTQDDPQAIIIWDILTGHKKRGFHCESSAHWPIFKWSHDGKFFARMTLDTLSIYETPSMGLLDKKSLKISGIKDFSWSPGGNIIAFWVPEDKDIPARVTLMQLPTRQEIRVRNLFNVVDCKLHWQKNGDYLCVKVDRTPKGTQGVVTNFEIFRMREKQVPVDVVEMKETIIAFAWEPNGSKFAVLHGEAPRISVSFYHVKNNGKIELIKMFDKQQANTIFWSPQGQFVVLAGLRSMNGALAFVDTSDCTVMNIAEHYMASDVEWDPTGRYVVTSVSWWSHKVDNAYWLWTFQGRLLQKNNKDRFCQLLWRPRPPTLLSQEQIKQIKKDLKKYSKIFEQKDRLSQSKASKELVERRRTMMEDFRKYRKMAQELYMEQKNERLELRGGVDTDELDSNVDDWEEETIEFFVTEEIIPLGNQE
# UniProt Q04637: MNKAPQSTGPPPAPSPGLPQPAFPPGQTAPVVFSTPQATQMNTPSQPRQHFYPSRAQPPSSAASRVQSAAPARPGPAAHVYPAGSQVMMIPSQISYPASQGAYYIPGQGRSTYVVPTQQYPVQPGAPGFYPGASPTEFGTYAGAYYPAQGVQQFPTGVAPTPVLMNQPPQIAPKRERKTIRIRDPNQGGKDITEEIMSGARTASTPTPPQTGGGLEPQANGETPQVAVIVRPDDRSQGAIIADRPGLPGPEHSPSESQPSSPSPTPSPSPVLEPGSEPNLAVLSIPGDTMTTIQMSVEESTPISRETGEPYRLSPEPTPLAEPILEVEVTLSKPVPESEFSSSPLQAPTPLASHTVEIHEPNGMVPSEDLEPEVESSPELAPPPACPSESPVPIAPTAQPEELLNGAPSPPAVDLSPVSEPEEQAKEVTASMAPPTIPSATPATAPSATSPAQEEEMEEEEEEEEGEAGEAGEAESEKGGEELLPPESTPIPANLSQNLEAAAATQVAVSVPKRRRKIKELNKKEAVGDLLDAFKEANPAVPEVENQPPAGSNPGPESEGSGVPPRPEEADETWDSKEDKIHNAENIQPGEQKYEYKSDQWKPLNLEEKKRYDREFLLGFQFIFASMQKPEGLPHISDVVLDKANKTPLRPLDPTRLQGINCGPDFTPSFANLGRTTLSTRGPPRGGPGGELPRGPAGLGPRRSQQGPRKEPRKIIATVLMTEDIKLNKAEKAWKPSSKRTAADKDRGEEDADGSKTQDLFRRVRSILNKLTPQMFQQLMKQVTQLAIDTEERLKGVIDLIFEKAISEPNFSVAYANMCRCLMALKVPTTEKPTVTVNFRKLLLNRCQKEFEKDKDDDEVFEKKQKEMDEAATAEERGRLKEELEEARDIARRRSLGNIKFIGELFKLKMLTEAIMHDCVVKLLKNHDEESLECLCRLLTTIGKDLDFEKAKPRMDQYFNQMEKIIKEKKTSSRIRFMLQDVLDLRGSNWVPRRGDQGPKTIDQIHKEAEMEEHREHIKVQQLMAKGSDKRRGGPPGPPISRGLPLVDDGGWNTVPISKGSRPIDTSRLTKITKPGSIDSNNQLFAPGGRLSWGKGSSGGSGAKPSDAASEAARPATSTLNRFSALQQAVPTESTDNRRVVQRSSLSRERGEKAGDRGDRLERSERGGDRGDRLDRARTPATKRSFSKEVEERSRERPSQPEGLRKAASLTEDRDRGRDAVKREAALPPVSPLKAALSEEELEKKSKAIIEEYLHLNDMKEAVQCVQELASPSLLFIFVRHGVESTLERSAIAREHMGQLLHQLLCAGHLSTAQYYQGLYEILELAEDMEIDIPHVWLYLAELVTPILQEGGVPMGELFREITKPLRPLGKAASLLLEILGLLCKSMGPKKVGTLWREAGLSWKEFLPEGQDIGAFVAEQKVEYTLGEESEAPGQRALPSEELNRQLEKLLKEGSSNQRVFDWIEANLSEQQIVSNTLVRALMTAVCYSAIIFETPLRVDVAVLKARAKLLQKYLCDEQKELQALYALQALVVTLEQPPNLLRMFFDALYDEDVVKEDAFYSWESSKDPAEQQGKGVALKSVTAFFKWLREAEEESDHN
# Target: Flag-tagged eIF3d (UniProt O15371)
# Assay: co-IP
row,binding,Substance
1,binds,eIF3b (from UniProt P55884 1-814)
2,binds,eIF4G1 (from UniProt Q04637 1-1599)

# — article doi:10.1101/2023.12.15.571284
